Results: the supplement of paper PMC10849652
This is one part of the list.

By UniProt entry, the sequences of proteins in these tests, tags left out. Where a name states a change or a piece, a line headed by the entry shows the natural chain unless it says otherwise.
UniProt Q9BQ95: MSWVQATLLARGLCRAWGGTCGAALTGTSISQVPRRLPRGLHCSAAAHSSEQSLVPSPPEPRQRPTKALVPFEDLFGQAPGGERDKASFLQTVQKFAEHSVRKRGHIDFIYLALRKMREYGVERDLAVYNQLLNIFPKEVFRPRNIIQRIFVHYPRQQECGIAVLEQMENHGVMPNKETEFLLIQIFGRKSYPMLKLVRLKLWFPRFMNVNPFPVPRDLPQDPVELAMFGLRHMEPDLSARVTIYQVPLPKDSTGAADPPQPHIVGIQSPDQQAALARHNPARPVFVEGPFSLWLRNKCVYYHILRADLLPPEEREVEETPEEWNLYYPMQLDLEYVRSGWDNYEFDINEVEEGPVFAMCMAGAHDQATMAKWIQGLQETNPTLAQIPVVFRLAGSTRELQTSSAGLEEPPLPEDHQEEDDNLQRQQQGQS
UniProt Q9GZT9: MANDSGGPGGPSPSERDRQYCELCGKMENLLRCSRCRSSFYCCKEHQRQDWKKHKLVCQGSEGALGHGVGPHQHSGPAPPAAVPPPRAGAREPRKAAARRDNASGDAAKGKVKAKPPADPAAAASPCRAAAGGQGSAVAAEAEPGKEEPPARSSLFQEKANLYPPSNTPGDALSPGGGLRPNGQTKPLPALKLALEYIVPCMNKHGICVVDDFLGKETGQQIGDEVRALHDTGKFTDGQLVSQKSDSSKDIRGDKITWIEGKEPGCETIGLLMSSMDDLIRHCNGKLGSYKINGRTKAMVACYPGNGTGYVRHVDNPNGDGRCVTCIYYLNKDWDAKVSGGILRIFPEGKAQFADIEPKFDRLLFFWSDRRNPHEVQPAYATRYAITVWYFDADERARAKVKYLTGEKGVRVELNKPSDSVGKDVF
UniProt Q9Y295: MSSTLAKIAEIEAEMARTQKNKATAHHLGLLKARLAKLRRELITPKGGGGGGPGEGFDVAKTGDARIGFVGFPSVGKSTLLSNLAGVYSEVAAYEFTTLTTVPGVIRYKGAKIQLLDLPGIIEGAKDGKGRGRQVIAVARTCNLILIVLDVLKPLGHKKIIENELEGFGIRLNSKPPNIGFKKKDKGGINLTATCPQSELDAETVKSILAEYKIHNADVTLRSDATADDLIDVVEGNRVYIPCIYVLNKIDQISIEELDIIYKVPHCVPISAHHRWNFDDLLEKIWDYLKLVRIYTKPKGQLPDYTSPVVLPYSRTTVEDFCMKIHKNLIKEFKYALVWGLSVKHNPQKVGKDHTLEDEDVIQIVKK
UniProt Q9BTV6: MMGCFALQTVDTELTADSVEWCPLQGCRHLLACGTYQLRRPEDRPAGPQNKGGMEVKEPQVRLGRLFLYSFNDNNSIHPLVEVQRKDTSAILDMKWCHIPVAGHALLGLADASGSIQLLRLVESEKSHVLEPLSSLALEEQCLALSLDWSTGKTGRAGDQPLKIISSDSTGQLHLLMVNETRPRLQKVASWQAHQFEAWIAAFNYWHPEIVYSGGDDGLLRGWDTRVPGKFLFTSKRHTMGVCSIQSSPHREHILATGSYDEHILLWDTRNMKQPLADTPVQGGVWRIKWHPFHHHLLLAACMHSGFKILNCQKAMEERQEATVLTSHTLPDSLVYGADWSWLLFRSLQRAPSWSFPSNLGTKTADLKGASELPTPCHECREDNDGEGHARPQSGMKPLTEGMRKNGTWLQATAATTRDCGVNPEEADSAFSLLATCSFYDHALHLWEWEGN
UniProt P57772: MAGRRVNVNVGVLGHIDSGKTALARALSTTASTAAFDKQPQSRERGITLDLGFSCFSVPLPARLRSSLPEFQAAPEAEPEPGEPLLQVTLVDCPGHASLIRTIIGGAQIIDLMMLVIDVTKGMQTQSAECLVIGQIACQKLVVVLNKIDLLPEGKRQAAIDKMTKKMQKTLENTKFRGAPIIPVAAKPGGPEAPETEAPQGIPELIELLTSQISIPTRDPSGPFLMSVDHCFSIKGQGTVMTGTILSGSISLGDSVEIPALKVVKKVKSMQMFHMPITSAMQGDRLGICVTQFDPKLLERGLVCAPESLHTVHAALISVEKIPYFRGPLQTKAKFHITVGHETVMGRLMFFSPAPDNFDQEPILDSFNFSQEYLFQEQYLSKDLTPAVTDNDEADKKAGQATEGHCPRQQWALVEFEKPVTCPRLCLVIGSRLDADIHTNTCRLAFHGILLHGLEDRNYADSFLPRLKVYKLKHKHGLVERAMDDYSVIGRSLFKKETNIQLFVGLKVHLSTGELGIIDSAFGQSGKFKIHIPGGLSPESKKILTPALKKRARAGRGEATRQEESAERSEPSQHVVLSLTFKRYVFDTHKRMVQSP
UniProt O75521: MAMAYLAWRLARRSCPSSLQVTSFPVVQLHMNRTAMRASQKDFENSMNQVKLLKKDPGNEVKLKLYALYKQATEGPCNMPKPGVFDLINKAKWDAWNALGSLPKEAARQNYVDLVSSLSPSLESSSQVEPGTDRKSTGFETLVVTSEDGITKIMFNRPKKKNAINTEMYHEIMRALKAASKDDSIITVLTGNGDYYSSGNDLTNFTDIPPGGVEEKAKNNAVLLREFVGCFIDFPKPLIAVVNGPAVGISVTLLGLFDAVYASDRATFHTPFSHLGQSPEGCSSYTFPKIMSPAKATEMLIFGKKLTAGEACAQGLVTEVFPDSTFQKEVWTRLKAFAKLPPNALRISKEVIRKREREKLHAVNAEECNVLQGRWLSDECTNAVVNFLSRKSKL
UniProt Q3B7T1: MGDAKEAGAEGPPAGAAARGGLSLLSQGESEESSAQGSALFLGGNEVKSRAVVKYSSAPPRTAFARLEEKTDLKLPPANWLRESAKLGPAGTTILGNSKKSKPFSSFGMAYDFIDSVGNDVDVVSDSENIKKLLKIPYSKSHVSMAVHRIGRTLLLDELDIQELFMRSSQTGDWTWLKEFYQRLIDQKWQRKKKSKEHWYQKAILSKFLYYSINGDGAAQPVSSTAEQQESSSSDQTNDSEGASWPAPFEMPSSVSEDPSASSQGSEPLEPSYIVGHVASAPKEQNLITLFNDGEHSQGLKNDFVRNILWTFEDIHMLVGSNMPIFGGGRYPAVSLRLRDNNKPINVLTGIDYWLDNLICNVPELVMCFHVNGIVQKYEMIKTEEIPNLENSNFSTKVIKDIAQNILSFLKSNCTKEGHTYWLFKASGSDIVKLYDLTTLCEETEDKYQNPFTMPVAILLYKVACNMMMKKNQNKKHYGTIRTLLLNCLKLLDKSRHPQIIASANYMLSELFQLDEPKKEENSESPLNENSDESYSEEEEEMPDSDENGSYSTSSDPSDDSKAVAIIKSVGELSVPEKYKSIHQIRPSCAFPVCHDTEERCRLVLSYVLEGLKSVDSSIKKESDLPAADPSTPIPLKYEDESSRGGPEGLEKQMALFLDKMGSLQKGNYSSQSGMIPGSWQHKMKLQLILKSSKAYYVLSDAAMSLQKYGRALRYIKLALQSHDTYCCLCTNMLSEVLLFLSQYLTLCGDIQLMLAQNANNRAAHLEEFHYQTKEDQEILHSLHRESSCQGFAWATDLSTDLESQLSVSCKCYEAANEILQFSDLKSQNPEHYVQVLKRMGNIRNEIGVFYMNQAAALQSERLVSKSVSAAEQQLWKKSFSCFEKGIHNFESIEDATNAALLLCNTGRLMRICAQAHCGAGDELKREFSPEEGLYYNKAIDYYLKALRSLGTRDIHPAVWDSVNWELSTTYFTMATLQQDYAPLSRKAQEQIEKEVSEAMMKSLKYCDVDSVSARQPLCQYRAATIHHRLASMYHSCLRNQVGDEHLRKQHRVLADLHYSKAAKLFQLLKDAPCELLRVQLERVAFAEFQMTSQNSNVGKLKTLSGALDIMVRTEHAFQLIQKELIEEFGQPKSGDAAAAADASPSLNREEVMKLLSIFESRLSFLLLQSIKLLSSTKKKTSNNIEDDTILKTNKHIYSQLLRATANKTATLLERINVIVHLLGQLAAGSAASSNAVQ
UniProt Q13409, whole entry, looked up: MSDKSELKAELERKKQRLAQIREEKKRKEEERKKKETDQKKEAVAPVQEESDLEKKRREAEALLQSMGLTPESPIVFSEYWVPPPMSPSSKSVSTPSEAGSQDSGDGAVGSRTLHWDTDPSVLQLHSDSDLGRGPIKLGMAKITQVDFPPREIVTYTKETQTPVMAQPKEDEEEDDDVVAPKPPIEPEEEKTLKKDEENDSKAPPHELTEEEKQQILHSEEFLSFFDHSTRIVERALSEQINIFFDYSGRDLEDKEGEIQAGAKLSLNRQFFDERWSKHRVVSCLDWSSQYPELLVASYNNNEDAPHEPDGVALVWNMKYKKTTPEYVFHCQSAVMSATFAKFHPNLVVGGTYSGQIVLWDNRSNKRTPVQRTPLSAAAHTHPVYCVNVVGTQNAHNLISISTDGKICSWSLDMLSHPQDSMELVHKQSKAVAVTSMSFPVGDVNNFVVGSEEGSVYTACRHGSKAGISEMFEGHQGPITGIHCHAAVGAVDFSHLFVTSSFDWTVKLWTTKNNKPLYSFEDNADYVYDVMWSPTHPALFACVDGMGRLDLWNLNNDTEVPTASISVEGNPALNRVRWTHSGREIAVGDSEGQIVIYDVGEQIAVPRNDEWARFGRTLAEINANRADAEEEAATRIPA
UniProt Q92611: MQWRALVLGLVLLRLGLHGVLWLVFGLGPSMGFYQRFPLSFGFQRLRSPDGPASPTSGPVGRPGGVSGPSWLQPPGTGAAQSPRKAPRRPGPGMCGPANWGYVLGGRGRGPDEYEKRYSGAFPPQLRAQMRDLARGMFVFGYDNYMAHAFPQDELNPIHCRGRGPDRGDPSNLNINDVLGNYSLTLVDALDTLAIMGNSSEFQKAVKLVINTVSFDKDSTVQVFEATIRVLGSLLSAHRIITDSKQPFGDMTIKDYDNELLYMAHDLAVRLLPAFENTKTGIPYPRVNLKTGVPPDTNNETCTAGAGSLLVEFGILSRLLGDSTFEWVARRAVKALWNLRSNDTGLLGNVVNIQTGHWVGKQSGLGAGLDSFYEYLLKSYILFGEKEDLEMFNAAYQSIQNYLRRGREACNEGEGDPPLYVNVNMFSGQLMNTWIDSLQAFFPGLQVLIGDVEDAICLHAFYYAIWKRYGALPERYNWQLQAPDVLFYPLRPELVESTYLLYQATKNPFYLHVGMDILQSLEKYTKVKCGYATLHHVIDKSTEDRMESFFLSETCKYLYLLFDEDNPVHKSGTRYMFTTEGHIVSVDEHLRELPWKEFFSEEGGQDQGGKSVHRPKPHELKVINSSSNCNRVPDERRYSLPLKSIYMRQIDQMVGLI
UniProt O95905: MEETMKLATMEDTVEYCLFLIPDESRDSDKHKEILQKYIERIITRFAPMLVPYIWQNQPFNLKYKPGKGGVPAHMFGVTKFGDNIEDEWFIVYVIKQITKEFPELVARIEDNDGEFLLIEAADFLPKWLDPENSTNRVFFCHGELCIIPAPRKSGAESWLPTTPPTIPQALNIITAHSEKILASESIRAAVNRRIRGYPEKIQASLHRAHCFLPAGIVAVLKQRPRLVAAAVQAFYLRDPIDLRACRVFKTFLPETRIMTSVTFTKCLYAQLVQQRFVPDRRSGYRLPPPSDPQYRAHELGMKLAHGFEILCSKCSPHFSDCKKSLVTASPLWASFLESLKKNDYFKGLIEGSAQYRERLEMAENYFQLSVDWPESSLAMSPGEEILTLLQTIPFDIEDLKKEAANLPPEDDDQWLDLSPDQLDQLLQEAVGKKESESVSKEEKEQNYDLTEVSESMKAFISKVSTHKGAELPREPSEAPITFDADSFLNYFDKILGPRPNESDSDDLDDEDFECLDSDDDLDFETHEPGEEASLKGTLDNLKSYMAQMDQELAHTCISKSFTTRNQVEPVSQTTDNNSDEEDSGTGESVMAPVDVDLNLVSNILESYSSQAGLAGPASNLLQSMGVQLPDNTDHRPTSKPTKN
UniProt Q9NY33: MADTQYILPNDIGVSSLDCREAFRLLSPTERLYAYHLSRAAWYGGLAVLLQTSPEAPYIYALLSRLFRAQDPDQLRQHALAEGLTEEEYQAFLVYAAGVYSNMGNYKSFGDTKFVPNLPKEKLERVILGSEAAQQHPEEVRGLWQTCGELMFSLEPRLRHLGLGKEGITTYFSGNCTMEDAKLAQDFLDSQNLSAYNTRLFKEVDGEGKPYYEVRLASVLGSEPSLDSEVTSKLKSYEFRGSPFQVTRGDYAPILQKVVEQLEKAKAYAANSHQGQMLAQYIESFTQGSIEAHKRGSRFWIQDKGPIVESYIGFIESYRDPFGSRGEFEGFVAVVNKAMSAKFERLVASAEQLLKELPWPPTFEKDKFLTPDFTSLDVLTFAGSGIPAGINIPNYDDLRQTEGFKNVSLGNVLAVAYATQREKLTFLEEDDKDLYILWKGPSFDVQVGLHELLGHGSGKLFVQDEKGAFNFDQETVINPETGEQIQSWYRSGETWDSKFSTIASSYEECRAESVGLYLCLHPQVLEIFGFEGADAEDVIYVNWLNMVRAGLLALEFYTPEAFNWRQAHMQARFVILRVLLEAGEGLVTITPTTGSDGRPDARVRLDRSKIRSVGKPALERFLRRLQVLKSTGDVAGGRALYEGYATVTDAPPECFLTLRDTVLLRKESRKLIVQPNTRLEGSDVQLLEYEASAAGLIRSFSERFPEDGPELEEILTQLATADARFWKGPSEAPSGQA

Assays:
Assay in all cases: log2 fold change, soluble protein after heating vs DMSO (PISA); higher = thermal stabilisation; K562 lysate, 10 uM; active = over 0.2 and 3.5 SD of the protein, either way, in both replicates (recomputed)
[1] = compound: CCCS(=O)(=O)Nc1ccc(F)c(C(=O)c2c[nH]c3ncc(-c4ccc(Cl)cc4)cc23)c1F [vemurafenib]
Procedure, shortened: (§1)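 The values are log-two fold changes in thermal stability compared with solvent controls and come from duplicates. They were obtained by TMTpro 16plex LC-MS/MS, with channel sums equalised, on the supernatant after 21,000xg for 90 min. That supernatant came from crude K562 extract at 1 mg/mL protein treated with 10 μM compound for 30 min, heated for 3 min across 48°C-58°C, pooled and brought to 0.5% NP-40 at 4°C.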

[2] = compound: CCCS(=O)(=O)Nc1ccc(F)c(C(=O)c2c[nH]c3ncc(Cl)cc23)c1F
Procedure, shortened: as §1

[3] = compound: CCN(CCCOc1ccc2c(Nc3cc(CC(=O)Nc4cccc(F)c4)[nH]n3)ncnc2c1)CCOP(=O)(O)O [barasertib]
Procedure, shortened: as §1

[4] = compound: CC[C@@H]1C(=O)N(C)c2cnc(Nc3ccc(C(=O)NC4CCN(C)CC4)cc3OC)nc2N1C1CCCC1
Procedure, shortened: as §1

[5] = compound: CC[C@@H]1C(=O)N(C)c2cnc(Nc3ccc(C(=O)N[C@H]4CC[C@H](N5CCN(CC6CC6)CC5)CC4)cc3OC)nc2N1C(C)C [volasertib]
Procedure, shortened: as §1

[6] = compound: CCn1c(C(=O)N(C2CC2)C2CC2)cc2c3c(ncn3C)c(Nc3cc(C)n(C)n3)nc21
Procedure, shortened: as §1

[7] = compound: CCn1cc(-c2ccnc3[nH]c(-c4cccc(CN(C)C)c4)cc23)c(-c2ccc(NC(=O)N(C)C)cc2)n1
Procedure, shortened: as §1

[8] = compound: CN1CCC(CNc2ccc3ncc(-c4cccc(OC(F)(F)F)c4)n3n2)CC1
Procedure, shortened: as §1

[9] = compound: CN1CCN(CCOc2cc(OC3CCOCC3)c3c(Nc4c(Cl)ccc5c4OCO5)ncnc3c2)CC1 [saracatinib]
Procedure, shortened: as §1

[10] = compound: CN1CCN(c2nc(C3=C(c4c[nH]c5ccccc45)C(=O)NC3=O)c3ccccc3n2)CC1 [sotrastaurin]
Procedure, shortened: as §1

[11] = compound: CN1CC[C@H](c2c(O)cc(O)c3c(=O)cc(-c4ccccc4Cl)oc23)[C@H](O)C1 [alvocidib]
Procedure, shortened: as §1

[12] = compound: CN1CCc2c(c3ccccc3n2Cc2ccc(C(=O)NO)cc2)C1 [Tubastatin A]
Procedure, shortened: as §1

[13] = compound: CNC(=O)C1=CC=CC=C1NC2=NC(=NC=C2Cl)NC3=C(C=C(C=C3)N4CCOCC4)OC
Procedure, shortened: as §1

[14] = compound: CNC(=O)c1ccc(Nc2ncc(C(F)(F)F)c(NCc3nccnc3N(C)S(C)(=O)=O)n2)cc1 [defactinib]
Procedure, shortened: as §1

[15] = compound: CNc1nc(-c2ccc3c(N)n[nH]c3c2)cc(N2C[C@@H](C(=O)NC3CCCCC3)CC[C@H]2C)n1
Procedure, shortened: as §1

[16] = compound: COC(=O)N[C@@H](C)CNc1nccc(-c2cn(C(C)C)nc2-c2cc(Cl)cc(NS(C)(=O)=O)c2F)n1 [encorafenib]
Procedure, shortened: as §1

[17] = compound: COC(=O)[C@H](CCSC)NC(=O)C1=C(C=C(C=C1)NC[C@H](CS)N)C2=CC=CC=C2
Procedure, shortened: as §1

[18] = compound: COc1cc(Nc2ncc3c(n2)-c2ccc(Cl)cc2C(c2c(F)cccc2OC)=NC3)ccc1C(=O)O [alisertib]
Procedure, shortened: as §1

[19] = compound: COc1cc2nc(-c3cc(F)ccc3O)nc(N[C@@H]3CNC[C@H]3C(C)(C)O)c2cc1OC
Procedure, shortened: as §1

[20] = compound: COc1cc2ncnc(Nc3ccc(F)c(Cl)c3)c2cc1OCCCN1CCOCC1 [gefitinib]
Procedure, shortened: as §1

Measured: log2 fold change

DYRK1A (UniProt Q13627)
inactive: [1] -0.06 | [2] -0.009 | [3] 0.025 | [4] -0.047 | [5] -0.016 | [6] 0.038 | [7] -0.004 | [8] 0.044 | [9] -0.017 | [10] -0.013 | [11] 0.106 | [12] -0.088 | [13] 0.113 | [14] 0.016 | [15] -0.034 | [16] 0.024 | [17] 0.002 | [18] -0.008 | [19] 0.017 | [20] 0.007

ECSIT (UniProt Q9BQ95)
inactive: [1] -0.027 | [2] 0.014 | [3] -0.008 | [4] -0.006 | [5] 0.004 | [6] 0.02 | [7] -0.026 | [8] 0.013 | [9] -0.006 | [10] 0.047 | [11] 0.041 | [12] 0.041 | [13] 0.01 | [14] -0.038 | [15] -0.011 | [16] -0.018 | [17] 0.019 | [18] -0.045 | [19] 0.023 | [20] 0.019

EGLN1 (UniProt Q9GZT9)
inactive: [1] -0.052 | [2] -0.041 | [3] -0.025 | [4] -0.078 | [5] -0.076 | [6] 0.007 | [7] 0.019 | [8] -0.001 | [9] 0.029 | [10] 0.034 | [11] -0.017 | [12] -0.088 | [13] 0.025 | [14] 0.033 | [15] -0.026 | [16] 0 | [17] 0.091 | [18] 0.009 | [19] 0.022 | [20] -0.003

Quoted from the entries so far (2 entries):
ECSIT (UniProt Q9BQ95)
inactive: [1] -0.027 | [2] 0.014 | [3] -0.008 | [4] -0.006 | [5] 0.004 | [6] 0.02 | [7] -0.026 | [8] 0.013 | [9] -0.006 | [10] 0.047 | [11] 0.041 | [12] 0.041 | [13] 0.01 | [14] -0.038 | [15] -0.011 | [16] -0.018 | [17] 0.019 | [18] -0.045 | [19] 0.023 | [20] 0.019

EGLN1 (UniProt Q9GZT9)
inactive: [1] -0.052 | [2] -0.041 | [3] -0.025 | [4] -0.078 | [5] -0.076 | [6] 0.007 | [7] 0.019 | [8] -0.001 | [9] 0.029 | [10] 0.034 | [11] -0.017 | [12] -0.088 | [13] 0.025 | [14] 0.033 | [15] -0.026 | [16] 0 | [17] 0.091 | [18] 0.009 | [19] 0.022 | [20] -0.003

(continued)

DRG1 (UniProt Q9Y295)
inactive: [1] -0.02 | [2] 0.009 | [3] 0.002 | [4] 0.01 | [5] 0 | [6] -0.025 | [7] 0.016 | [8] -0.008 | [9] -0.012 | [10] -0.003 | [11] 0.012 | [12] 0.01 | [13] -0.015 | [14] 0.013 | [15] 0.01 | [16] 0.002 | [17] -0.017 | [18] 0.007 | [19] 0.013 | [20] -0.022

DPH7 (UniProt Q9BTV6)
inactive: [1] 0.003 | [2] -0.006 | [3] -0.036 | [4] 0.078 | [5] -0.016 | [6] 0 | [7] -0.015 | [8] 0.03 | [9] -0.017 | [10] 0.009 | [11] -0.014 | [12] -0.039 | [13] -0.021 | [14] 0.075 | [15] 0.018 | [16] -0.012 | [17] -0.024 | [18] 0.032 | [19] 0.047 | [20] -0.022

DST (UniProt Q03001)
inactive: [1] 0.23 | [2] 0.021 | [3] 0.083 | [4] 0.021 | [5] -0.045 | [6] -0.073 | [7] -0.174 | [8] 0.076 | [9] 0.052 | [10] -0.024 | [11] -0.047 | [12] 0.033 | [13] -0.003 | [14] -0.094 | [15] 0.114 | [16] 0.018 | [17] 0.048 | [18] 0.003 | [19] 0.033 | [20] 0.046

EED, A0A5F9ZI63
inactive: [1] -0.019 | [2] 0.034 | [3] -0.029 | [4] 0.005 | [5] 0.015 | [6] -0.012 | [7] -0.047 | [8] 0.049 | [9] 0.026 | [10] 0.031 | [11] -0.007 | [12] -0.026 | [13] 0.039 | [14] 0.003 | [15] 0.036 | [16] 0.004 | [17] 0.063 | [18] -0.01 | [19] 0.013 | [20] -0.025

EEFSEC (UniProt P57772)
inactive: [1] 0.031 | [2] 0.024 | [3] 0.031 | [4] -0.067 | [5] -0.035 | [6] -0.012 | [7] -0.073 | [8] 0.009 | [9] -0.015 | [10] -0.016 | [11] -0.008 | [12] -0.157 | [13] 0.019 | [14] 0.036 | [15] -0.017 | [16] 0.018 | [17] 0.098 | [18] 0.019 | [19] 0 | [20] -0.012

ECI2 (UniProt O75521)
inactive: [1] 0.071 | [2] 0.013 | [3] 0.007 | [4] 0.059 | [5] -0.013 | [6] 0.004 | [7] -0.021 | [8] -0.017 | [9] -0.003 | [10] -0.045 | [11] -0.033 | [12] 0.054 | [13] -0.054 | [14] -0.038 | [15] 0.03 | [16] -0.006 | [17] -0.067 | [18] 0.004 | [19] -0.008 | [20] 0.011

EDRF1 (UniProt Q3B7T1)
inactive: [1] -0.074 | [2] -0.043 | [3] 0.032 | [4] -0.183 | [5] -0.008 | [6] -0.026 | [7] 0.045 | [8] -0.106 | [9] 0.046 | [10] -0.006 | [11] -0.005 | [12] 0.041 | [13] 0.092 | [14] 0.099 | [15] 0.133 | [16] 0.043 | [17] 0.056 | [18] 0.1 | [19] 0.011 | [20] -0.023

EI24 (UniProt O14681)
inactive: [1] 0.08 | [2] 0.028 | [3] 0.027 | [4] -0.063 | [5] 0.009 | [6] 0.048 | [7] 0.21 | [8] -0.084 | [9] -0.017 | [10] -0.055 | [11] 0.07 | [12] 0.031 | [13] -0.03 | [14] 0.016 | [15] -0.042 | [16] 0.093 | [17] -0.014 | [18] 0.025 | [19] -0.01 | [20] 0.009

DYNC1I2 isoform 5 (UniProt Q13409)
inactive: [1] -0.015 | [2] 0.013 | [3] -0.03 | [4] -0.012 | [5] -0.013 | [6] -0.016 | [7] -0.017 | [8] 0.017 | [9] 0.003 | [10] -0.034 | [11] 0.002 | [12] 0.007 | [13] -0.021 | [14] -0.011 | [15] 0.012 | [16] -0.007 | [17] -0.012 | [18] -0.011 | [19] 0.004 | [20] 0.006

EDEM1 (UniProt Q92611)
inactive: [1] -0.052 | [2] 0.003 | [3] -0.049 | [4] -0.143 | [5] -0.006 | [6] -0.031 | [7] -0.024 | [8] -0.012 | [9] 0.044 | [10] -0.008 | [11] 0.053 | [12] 0.102 | [13] -0.005 | [14] 0.023 | [15] -0.019 | [16] 0.109 | [17] 0.017 | [18] 0.057 | [19] 0.028 | [20] -0.002

ECD isoform 3 (UniProt O95905)
inactive: [1] 0.02 | [2] 0.015 | [3] 0.011 | [4] -0.062 | [5] -0.001 | [6] -0.012 | [7] -0.005 | [8] -0.146 | [9] 0.029 | [10] 0.027 | [11] 0.013 | [12] -0.001 | [13] 0.033 | [14] 0.024 | [15] -0.104 | [16] 0.059 | [17] 0 | [18] -0.013 | [19] 0.03 | [20] -0.018

DPP3 (UniProt Q9NY33)
inactive: [1] -0.014 | [2] -0.001 | [3] 0.013 | [4] -0.048 | [5] -0.027 | [6] 0.01 | [7] 0.069 | [8] -0.091 | [9] -0.023 | [10] -0.028 | [11] 0.032 | [12] -0.002 | [13] 0.005 | [14] -0.03 | [15] -0.042 | [16] -0.028 | [17] 0.185 | [18] 0.009 | [19] -0.013 | [20] -0.029
